In patent publication EP0861265B1, “use of CASEIN FRAGMENTS as GROWTH PROMOTer” (Pepsyn Limited, priority 1995, dated 2002):
Part of at least one peptide drawing is inferred or uncertain, most often the ends. Where no end group is shown, it is not given here.

Test system: rat mammary fibroblast cell line (Rama 27)
Experiment: incorporation of [3H] thymidine into the DNA of Rama 27 cells (mitogenic / growth promoting assay)
Assay type: cell-based

Sequence	growth promoting activity (incorporation of [3H] thymidine into the DNA of Rama 27 cells)	activity (when maintained at alkaline pH)
KVIPYVRYL [LysValIleProTyrValArgTyrLeu]	showed bioactivity	substantially increased
TKVIPYVRYL [peak C, ThrLysValIleProTyrValArgTyrLeu]	active	–
